In paper PMC13043894 one finds binding data, which are given here for 1 substance.

Amino acid sequences for entries named in this document (tags omitted).
UniProt P61765: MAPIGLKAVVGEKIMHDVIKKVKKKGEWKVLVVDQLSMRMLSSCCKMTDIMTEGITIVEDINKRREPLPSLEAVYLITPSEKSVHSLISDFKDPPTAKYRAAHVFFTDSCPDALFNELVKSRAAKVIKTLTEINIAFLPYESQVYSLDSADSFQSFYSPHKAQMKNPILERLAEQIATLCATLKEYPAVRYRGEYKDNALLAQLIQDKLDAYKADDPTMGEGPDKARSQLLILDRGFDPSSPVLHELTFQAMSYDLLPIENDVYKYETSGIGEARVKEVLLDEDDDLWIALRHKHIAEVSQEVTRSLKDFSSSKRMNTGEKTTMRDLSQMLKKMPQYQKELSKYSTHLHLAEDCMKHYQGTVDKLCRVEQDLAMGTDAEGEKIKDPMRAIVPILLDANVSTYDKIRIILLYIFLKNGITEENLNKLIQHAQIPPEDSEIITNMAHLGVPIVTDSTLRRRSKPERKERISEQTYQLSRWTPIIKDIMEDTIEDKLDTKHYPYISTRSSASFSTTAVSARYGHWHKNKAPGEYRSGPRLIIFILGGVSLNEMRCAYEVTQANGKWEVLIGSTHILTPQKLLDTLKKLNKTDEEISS
UniProt P34077: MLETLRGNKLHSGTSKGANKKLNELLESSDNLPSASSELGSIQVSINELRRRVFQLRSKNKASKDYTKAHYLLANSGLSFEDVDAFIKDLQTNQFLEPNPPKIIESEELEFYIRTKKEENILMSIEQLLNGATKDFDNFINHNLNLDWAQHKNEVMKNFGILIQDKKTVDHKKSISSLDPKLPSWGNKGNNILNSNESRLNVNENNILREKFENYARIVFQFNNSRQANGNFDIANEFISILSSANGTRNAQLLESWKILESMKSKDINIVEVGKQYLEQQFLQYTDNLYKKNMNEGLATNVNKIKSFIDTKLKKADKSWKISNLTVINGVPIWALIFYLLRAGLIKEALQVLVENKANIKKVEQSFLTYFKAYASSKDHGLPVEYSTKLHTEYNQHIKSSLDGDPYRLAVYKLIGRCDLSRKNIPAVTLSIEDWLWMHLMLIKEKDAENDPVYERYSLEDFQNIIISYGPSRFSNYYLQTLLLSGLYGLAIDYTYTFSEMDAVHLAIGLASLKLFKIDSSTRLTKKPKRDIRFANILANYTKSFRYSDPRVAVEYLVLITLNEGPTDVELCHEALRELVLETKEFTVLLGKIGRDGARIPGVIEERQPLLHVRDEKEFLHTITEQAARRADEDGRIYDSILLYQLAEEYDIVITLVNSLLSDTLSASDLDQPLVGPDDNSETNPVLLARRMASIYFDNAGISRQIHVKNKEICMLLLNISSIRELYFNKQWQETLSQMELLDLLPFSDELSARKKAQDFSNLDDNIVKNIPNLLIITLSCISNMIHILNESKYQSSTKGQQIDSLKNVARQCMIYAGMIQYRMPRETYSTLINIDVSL

No constants are given. Whether binding was seen depends on the method and setting. Binding seen in cells or lysates may run through a third protein. Some results given as binding are weak or reduced against the parent protein; the word gives no strength. For some assays here: Where a sequence is shown, tags or fusion partners need not be part of it.

In experiment [1] the target is T1, GST-Brl1^1-200 (S. cerevisiae) (UniProt P38770).
T1 sequence: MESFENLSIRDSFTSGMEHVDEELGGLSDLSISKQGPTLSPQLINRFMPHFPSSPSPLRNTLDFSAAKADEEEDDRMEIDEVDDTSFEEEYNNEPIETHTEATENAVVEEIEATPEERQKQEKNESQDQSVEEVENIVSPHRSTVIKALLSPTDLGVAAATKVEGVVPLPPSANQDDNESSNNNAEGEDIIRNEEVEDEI
As to the kind of experiment: pull-down; GST-Brl1^1-200 or GST-nSec1 bound to glutathione beads, incubated with lysate of E. coli expressing 6His-Nic96; immunoblot with GST and 6His antibodies; only the target purified.

For another experiment, the target named is GST-nSec1 (UniProt P61765). The description is as above.

Regarding 6His-Nic96 (from UniProt P34077 1-839), the binding result in experiment [1] was “binds”; with GST-nSec1, “no binding”.
